SMILES strings stand for the structures.

Series [1] in a line: Diuretic action after oral administration (excretion of electrolyte and of water). Format: in vivo, dog (male beagles). Conditions: dog. On the procedure: The diuretic action was determined on male beagles weighing from 10 to 15 kg.
The animals are kept without food for 18 hours before starting the experiment. 2 hours before administration of the test substance, they are given 20 ml/kg of water orally. The test substances are administered orally as a tragacanth suspension. Thereafter, 4 ml/kg of water are administered 6 times at intervals of 1 hour.
Urine samples are taken by catheterization at intervals of 2 hours, over a period of 6 hours. […]

The next series can be described thus: in vivo. The following applies: mouse, po. On the procedure: To determine the acute toxicity, the substances are administered orally to groups of 10 female mice of the NMRI strain, weighing from 20 to 23 g. The mean lethal dose (LD 50) is determined after a period of observation of 72 hours.

One may read the LD50 as the dose at which mortality reaches 50%. Regarding `NS(=O)(=O)c1cc(C(=O)O)c(NCc2ccco2)cc1Cl` [Furosemid, 4-chloro-N-(2-furylmethyl)-5-sulfamylanthranilic acid, reference compound], the “Excretion of electrolyte: Na^+” value in series [1] (2 hours, dose mg/kg: 9 0.464, 15 0.215, 114 0.1, 116 0.1, 120 0.215, Furosemid 1.0, control 66) is 1,370 μval/kg; in series [1] (6 hours, dose mg/kg: 9 0.464, 15 0.215, 114 0.1, 116 0.1, 120 0.215, Furosemid 1.0, control 212) it was 1,530 μval/kg. In addition, the “Excretion of water: H2 O” value was found to be 25 mL/kg in series [1] (2 hours, doses as E1, control 9,3) and 39 mL/kg in series [1] (6 hours, doses as E6, control 27). Further, the “Excretion of electrolyte: K^+” value in series [1] (2 hours, doses as E1, control 67) turned out to be 449 μval/kg; in series [1] (6 hours, doses as E6, control 184) it was 620 μval/kg. In addition, the “Excretion of electrolyte: Cl^-” value in series [1] (2 hours, doses as E1, control 81) is reported as 1,720 μval/kg; in series [1] (6 hours, doses as E6, control 238), 1,890 μval/kg. For the same compound, the “Na^+ excretion between the 2nd and 6th hours after administration” value in series [1] (in words) is recorded as “no longer rises significantly”. The LD50 at 72 h in “in vivo” was determined as 2000 mg/kg. The selectivity ratio in the series “in vivo” was 2000.
